We go through 14 compounds from patent US20240409482A1, “Novel Compound and Organic Light Emitting Device Comprising the Same” (LG Chem, Ltd., priority 2022, published 2024).

A short description of the series: Characteristic evaluation of organic light emitting device (compound as host of the light emitting layer). Conditions: for Driving voltage (V @ 10 mA/cm^2) / EQE (% @ 10 mA/cm^2): current density 10 mA/cm^2; for Lifetime (hr) (T90 @500 nit): time for luminance to be reduced to 90% of initial luminance (500 nit). The procedure:
A glass substrate thinly coated with ITO (indium tin oxide) to have a thickness of 500 Å was put into distilled water in which a detergent was dissolved, and ultrasonically washed. In this case, a product manufactured by Fischer Co., was used as the detergent, and distilled water twice filtered using a filter manufactured by Millipore Co., was used as the distilled water. After the ITO was washed for 30 minutes, ultrasonic washing was conducted twice repeatedly using distilled water for 10 minutes. After the washing using distilled water was completed, ultrasonic washing was conducted using isopropyl, and acetone solvents, and drying was conducted, and then the substrate was cleaned for 5 minutes, and then transferred to a glove box.
A coating composition, in which the following Compound O and the following Compound P (weight ratio of 2:8) were dissolved in 20 wt/v % cyclohexanone, was spin-coated (4000 rpm) on the ITO transparent electrode, and heat-treated (cured) at 200° C. for 30 minutes to form a hole injection layer with a thickness of 400 Å.
A coating composition, in which the following Compound Q (Mn: 27,900; Mw: 35,600; measured by gel permeation chromatography (GPC) on Agilent 1200 series, relative to PC standards) was dissolved in 6 wt/v % toluene, spin-coated (4000 rpm) on the hole injection layer, and heat-treated at 200° C. for 30 minutes to form a hole transport layer with a thickness of 200 Å.
A coating composition, in which Compound 1 prepared in the previous Preparation Example 1 as a host and Compound R as a dopant of the light emitting layer (a weight ratio of 98:2) were dissolved in 1.3 wt/v % cyclohexanone, spin-coated (4000 rpm) on the hole transport layer, and heat-treated at 180° C. for 30 minutes to form a light emitting layer with a thickness of 400 Å.
After being transferred to a vacuum depositor, the following Compound S was vacuum-deposited to a thickness of 350 Å on the light emitting layer to form an electron injection and transport layer. LiF and aluminum were sequentially deposited to have a thickness of 10 Å and 1000 Å, respectively, on the electron injection and transport layer, thereby forming a cathode.
In the above-mentioned process, the vapor deposition rate of the organic material was maintained at 0.4 to 0.7 Å/sec, the deposition rate of LiF was maintained at 0.3 Å/sec, the deposition rate of aluminum was maintained at 2 Å/sec, and the degree of vacuum during the deposition was maintained at 2*10^−7 to 5*10^−8 torr.
An organic light emitting device was manufactured in the same manner as in Example 1, except that the compounds shown in Table 2 below were used instead of Compound 1 as a host of the light emitting layer. The compounds used in Examples 1 to 14 are summarized as follows:
An organic light emitting device was manufactured in the same manner as in Example 1, except that the compounds shown in Table 2 below were used instead of Compound 1 as a host of the light emitting layer.
When a current is applied to the organic light emitting devices manufactured in Examples and Comparative Examples, the driving voltage, external quantum efficiency (EQE) and lifetime were measured at a current density of 10 mA/cm^2, and the results are shown in Table 3 below. At this time, the external quantum efficiency (FOE) was determined by “(number of photons emitted)/(number of charge carriers injected)*100” ˜, and T90 means the time required for the luminance to be reduced to 90% of the initial luminance (500 nit)

`c1ccc2cc(-c3c4ccccc4c(-c4ccc(-c5cccc6ccc(-c7ccc8cccc(-c9c%10ccccc%10c(-c%10ccc%11ccccc%11c%10)c%10ccccc9%10)c8c7)cc56)cc4)c4ccccc34)ccc2c1` [Compound 1]: the “Driving voltage (V @ 10 mA/cm^2)” value was found to be 6.4 V, the “EQE (% @ 10 mA/cm^2)” value is 5.53% and the “Lifetime (hr) (T90 @500 nit)” value amounted to 621 h.

`c1ccc2cc(-c3ccc(-c4c5ccccc5c(-c5cccc6ccc(-c7ccc8cccc(-c9c%10ccccc%10c(-c%10ccc%11ccccc%11c%10)c%10ccccc9%10)c8c7)cc56)c5ccccc45)cc3)ccc2c1` [Compound 2]: the “Driving voltage (V @ 10 mA/cm^2)” value came out at 6.4 V, the “EQE (% @ 10 mA/cm^2)” value is listed as 5.57% and the “Lifetime (hr) (T90 @500 nit)” value was 685 h.

For the compound `c1ccc2cc(-c3c4ccccc4c(-c4cccc5ccc(-c6ccc7cccc(-c8c9ccccc9c(-c9ccc(-c%10cccc%11ccccc%10%11)cc9)c9ccccc89)c7c6)cc45)c4ccccc34)ccc2c1` [Compound 3], the “Driving voltage (V @ 10 mA/cm^2)” value is recorded as 6.6 V, the “EQE (% @ 10 mA/cm^2)” value is listed as 5.48% and the “Lifetime (hr) (T90 @500 nit)” value amounted to 662 h.

For `c1cc(-c2cccc3ccc(-c4ccc5cccc(-c6c7ccccc7c(-c7ccc8ccccc8c7)c7ccccc67)c5c4)cc23)cc(-c2c3ccccc3c(-c3cccc4ccccc34)c3ccccc23)c1` [Compound 4], the “Driving voltage (V @ 10 mA/cm^2)” value is recorded as 6.0 V, the “EQE (% @ 10 mA/cm^2)” value stood at 5.37% and the “Lifetime (hr) (T90 @500 nit)” value was 725 h.

`c1cc(-c2cccc3ccc(-c4ccc5cccc(-c6c7ccccc7c(-c7ccc8ccccc8c7)c7ccccc67)c5c4)cc23)cc(-c2c3ccccc3c(-c3ccc4ccccc4c3)c3ccccc23)c1` [Compound 5]: the “Driving voltage (V @ 10 mA/cm^2)” value is reported as 6.2 V, the “EQE (% @ 10 mA/cm^2)” value worked out at 5.32% and the “Lifetime (hr) (T90 @500 nit)” value worked out at 679 h.

For the compound `c1cc(-c2ccc(-c3c4ccccc4c(-c4cccc5ccccc45)c4ccccc34)cc2)c2cc(-c3ccc4cccc(-c5c6ccccc6c(-c6cccc7oc8ccccc8c67)c6ccccc56)c4c3)ccc2c1` [Compound 6], the “Driving voltage (V @ 10 mA/cm^2)” value came out at 6.4 V, the “EQE (% @ 10 mA/cm^2)” value came out at 5.41% and the “Lifetime (hr) (T90 @500 nit)” value came to 733 h.

For `c1cc(-c2cccc3ccc(-c4ccc5cccc(-c6c7ccccc7c(-c7ccc8oc9ccccc9c8c7)c7ccccc67)c5c4)cc23)cc(-c2c3ccccc3c(-c3ccc4ccccc4c3)c3ccccc23)c1` [Compound 7], the “Driving voltage (V @ 10 mA/cm^2)” value was 6.1 V, the “EQE (% @ 10 mA/cm^2)” value came to 5.56% and the “Lifetime (hr) (T90 @500 nit)” value was determined as 649 h.

`c1cc(-c2ccc(-c3c4ccccc4c(-c4cccc5ccccc45)c4ccccc34)cc2)c2cc(-c3ccc4cccc(-c5c6ccccc6c(-c6ccc7oc8ccccc8c7c6)c6ccccc56)c4c3)ccc2c1` [Compound 8]: the “Driving voltage (V @ 10 mA/cm^2)” value is recorded as 6.5 V, the “EQE (% @ 10 mA/cm^2)” value stood at 5.49% and the “Lifetime (hr) (T90 @500 nit)” value stood at 630 h.

Take `c1ccc2c(-c3c4ccccc4c(-c4ccc(-c5ccc6ccc(-c7ccc8ccc(-c9c%10ccccc%10c(-c%10ccc%11oc%12ccccc%12c%11c%10)c%10ccccc9%10)cc8c7)cc6c5)cc4)c4ccccc34)cccc2c1` [Compound 9]: the “Driving voltage (V @ 10 mA/cm^2)” value was 6.4 V, the “EQE (% @ 10 mA/cm^2)” value is listed as 5.43% and the “Lifetime (hr) (T90 @500 nit)” value came out at 680 h.

In the case of `c1ccc2cc(-c3c4ccccc4c(-c4ccc5ccc(-c6ccc7ccc(-c8c9ccccc9c(-c9ccc(-c%10cccc%11ccccc%10%11)cc9)c9ccccc89)cc7c6)cc5c4)c4ccccc34)ccc2c1` [Compound 10], the “Driving voltage (V @ 10 mA/cm^2)” value is listed as 6.3 V, the “EQE (% @ 10 mA/cm^2)” value came out at 5.4% and the “Lifetime (hr) (T90 @500 nit)” value was 615 h.

In the case of `c1ccc2cc(-c3c4ccccc4c(-c4ccc(-c5cccc6cc(-c7ccc8c(-c9c%10ccccc%10c(-c%10ccc%11ccccc%11c%10)c%10ccccc9%10)cccc8c7)ccc56)cc4)c4ccccc34)ccc2c1` [Compound 11], the “Driving voltage (V @ 10 mA/cm^2)” value stood at 6.5 V, the “EQE (% @ 10 mA/cm^2)” value stood at 5.46% and the “Lifetime (hr) (T90 @500 nit)” value was 654 h.

As for `c1cc(-c2ccc(-c3c4ccccc4c(-c4cccc5ccccc45)c4ccccc34)cc2)c2ccc(-c3ccc4c(-c5c6ccccc6c(-c6ccc7oc8ccccc8c7c6)c6ccccc56)cccc4c3)cc2c1` [Compound 12], the “Driving voltage (V @ 10 mA/cm^2)” value was 6.2 V, the “EQE (% @ 10 mA/cm^2)” value is 5.45% and the “Lifetime (hr) (T90 @500 nit)” value stood at 659 h.

As for `c1ccc(-c2c3ccccc3c(-c3ccc(-c4ccc5cc(-c6ccc7cc(-c8c9ccccc9c(-c9ccccc9)c9ccccc89)ccc7c6)ccc5c4)cc3)c3ccccc23)cc1` [Compound A], the “Driving voltage (V @ 10 mA/cm^2)” value is reported as 6.8 V, the “EQE (% @ 10 mA/cm^2)” value amounted to 4.05% and the “Lifetime (hr) (T90 @500 nit)” value was found to be 321 h.

`c1ccc2c(-c3ccc(-c4c5ccccc5c(-c5ccc(-c6cccc7c(-c8cccc9ccc(-c%10ccc(-c%11c%12ccccc%12c(-c%12cccc%13ccccc%12%13)c%12ccccc%11%12)cc%10)cc89)cccc67)cc5)c5ccccc45)cc3)cccc2c1` [Compound B, reference compound]: the “Driving voltage (V @ 10 mA/cm^2)” value is 6.9 V, the “EQE (% @ 10 mA/cm^2)” value amounted to 4.17% and the “Lifetime (hr) (T90 @500 nit)” value was 419 h.
